Binding data for three molecules are collected here from article PMC9156784.

Amino acid sequences for entries named in this document (tags omitted). A change or cut given only in a name is not applied to a line headed by its entry.
UniProt Q4VQ79: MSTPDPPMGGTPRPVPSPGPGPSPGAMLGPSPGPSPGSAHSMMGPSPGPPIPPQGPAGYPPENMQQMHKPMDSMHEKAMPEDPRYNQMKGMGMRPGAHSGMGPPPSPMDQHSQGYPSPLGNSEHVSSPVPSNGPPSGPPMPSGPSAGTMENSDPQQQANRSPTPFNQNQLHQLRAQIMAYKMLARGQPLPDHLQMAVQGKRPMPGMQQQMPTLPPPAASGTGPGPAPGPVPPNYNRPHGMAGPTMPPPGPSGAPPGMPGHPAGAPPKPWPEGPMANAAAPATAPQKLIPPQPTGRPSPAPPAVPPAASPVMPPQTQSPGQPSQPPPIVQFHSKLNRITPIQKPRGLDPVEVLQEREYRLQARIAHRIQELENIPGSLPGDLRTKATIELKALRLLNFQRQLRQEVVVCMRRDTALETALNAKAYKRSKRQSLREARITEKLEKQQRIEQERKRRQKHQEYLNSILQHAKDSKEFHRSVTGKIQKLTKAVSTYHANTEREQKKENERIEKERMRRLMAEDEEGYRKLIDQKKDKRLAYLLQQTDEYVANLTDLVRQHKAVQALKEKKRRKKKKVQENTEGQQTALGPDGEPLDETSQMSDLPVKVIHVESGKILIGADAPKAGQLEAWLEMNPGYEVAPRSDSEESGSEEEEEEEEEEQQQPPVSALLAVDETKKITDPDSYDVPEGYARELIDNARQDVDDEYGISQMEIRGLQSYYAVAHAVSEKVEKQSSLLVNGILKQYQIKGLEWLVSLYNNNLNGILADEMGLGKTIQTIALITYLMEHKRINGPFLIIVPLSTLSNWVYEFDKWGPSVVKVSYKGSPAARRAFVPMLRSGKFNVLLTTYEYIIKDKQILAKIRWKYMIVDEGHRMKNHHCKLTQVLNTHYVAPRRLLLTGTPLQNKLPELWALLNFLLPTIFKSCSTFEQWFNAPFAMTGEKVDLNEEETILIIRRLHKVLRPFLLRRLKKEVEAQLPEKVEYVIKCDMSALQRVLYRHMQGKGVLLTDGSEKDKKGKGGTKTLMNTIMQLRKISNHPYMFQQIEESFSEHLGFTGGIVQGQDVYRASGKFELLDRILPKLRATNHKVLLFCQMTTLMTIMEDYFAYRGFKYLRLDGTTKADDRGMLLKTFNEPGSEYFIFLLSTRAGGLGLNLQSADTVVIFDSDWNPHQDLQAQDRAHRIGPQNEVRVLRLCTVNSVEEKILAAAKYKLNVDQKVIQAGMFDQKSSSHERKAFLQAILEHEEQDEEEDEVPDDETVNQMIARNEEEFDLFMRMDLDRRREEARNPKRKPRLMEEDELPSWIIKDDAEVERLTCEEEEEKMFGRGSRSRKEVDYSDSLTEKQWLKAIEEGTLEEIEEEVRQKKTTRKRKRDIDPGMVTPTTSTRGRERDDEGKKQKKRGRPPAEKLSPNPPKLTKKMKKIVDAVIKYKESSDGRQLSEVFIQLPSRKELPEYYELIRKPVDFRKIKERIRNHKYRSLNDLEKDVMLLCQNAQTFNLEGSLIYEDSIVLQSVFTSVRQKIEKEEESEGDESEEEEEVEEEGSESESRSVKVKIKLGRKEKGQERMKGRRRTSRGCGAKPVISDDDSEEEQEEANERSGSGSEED

No constants are given. Whether binding was seen depends on the method and setting. In cells and extracts the contact can be indirect. A result given as binding can be weak or reduced; the word gives no strength.

Common to all, as to experiment: co-IP; antibody (mock, BRD4, BRG1 or CtIP) conjugated to Protein A Sepharose beads; mixture of HSS and NPE diluted 8-fold in IP Buffer (10 mM HEPES-KOH pH 7.7, 2.5 mM MgCl2, 50 mM KCl, 250 mM sucrose, 0.02% Tween-20), 4 °C, 90 min; 4 washes; Western blot
In assay [1] the target is T1, CtIP (Xenopus laevis (endogenous in egg extract)) (UniProt Q6GNV6).
T1 sequence: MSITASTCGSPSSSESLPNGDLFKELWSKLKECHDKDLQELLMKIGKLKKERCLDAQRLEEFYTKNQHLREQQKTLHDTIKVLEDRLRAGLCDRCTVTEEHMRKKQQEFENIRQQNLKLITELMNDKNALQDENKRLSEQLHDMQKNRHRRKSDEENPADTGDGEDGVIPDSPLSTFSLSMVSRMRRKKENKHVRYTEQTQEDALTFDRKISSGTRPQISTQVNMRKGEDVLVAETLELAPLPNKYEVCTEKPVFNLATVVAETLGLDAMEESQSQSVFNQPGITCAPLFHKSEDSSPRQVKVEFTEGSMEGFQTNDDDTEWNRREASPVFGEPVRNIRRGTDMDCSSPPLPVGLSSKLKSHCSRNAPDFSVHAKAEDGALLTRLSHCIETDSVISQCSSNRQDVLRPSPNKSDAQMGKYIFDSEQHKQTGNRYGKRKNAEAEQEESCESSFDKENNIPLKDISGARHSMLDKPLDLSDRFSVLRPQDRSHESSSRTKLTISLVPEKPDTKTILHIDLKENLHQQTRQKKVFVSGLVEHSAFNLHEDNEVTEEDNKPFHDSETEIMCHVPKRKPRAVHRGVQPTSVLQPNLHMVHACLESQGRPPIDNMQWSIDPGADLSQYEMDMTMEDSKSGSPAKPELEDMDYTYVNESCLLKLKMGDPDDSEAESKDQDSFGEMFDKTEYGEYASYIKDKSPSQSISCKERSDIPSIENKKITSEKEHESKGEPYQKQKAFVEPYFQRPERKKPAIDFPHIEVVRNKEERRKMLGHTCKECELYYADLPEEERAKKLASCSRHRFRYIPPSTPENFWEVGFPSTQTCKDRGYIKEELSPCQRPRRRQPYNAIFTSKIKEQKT

Assay [2] deals with BRD4 (Xenopus laevis (endogenous in egg extract)).
In assay [3] the target is Brahma-Related Gene 1 (BRG1) (Xenopus (endogenous in egg extract)) (UniProt Q4VQ79).

As to “Brahma-Related Gene 1 (BRG1) (from UniProt Q4VQ79)”, the binding entry in assay [1] is given as “binds”.

Take BRD4: the binding result in assay [1] is given as “binds”.

B1: CtIP (protein, UniProt Q6GNV6 1-856)
chain: MSITASTCGSPSSSESLPNGDLFKELWSKLKECHDKDLQELLMKIGKLKKERCLDAQRLEEFYTKNQHLREQQKTLHDTIKVLEDRLRAGLCDRCTVTEEHMRKKQQEFENIRQQNLKLITELMNDKNALQDENKRLSEQLHDMQKNRHRRKSDEENPADTGDGEDGVIPDSPLSTFSLSMVSRMRRKKENKHVRYTEQTQEDALTFDRKISSGTRPQISTQVNMRKGEDVLVAETLELAPLPNKYEVCTEKPVFNLATVVAETLGLDAMEESQSQSVFNQPGITCAPLFHKSEDSSPRQVKVEFTEGSMEGFQTNDDDTEWNRREASPVFGEPVRNIRRGTDMDCSSPPLPVGLSSKLKSHCSRNAPDFSVHAKAEDGALLTRLSHCIETDSVISQCSSNRQDVLRPSPNKSDAQMGKYIFDSEQHKQTGNRYGKRKNAEAEQEESCESSFDKENNIPLKDISGARHSMLDKPLDLSDRFSVLRPQDRSHESSSRTKLTISLVPEKPDTKTILHIDLKENLHQQTRQKKVFVSGLVEHSAFNLHEDNEVTEEDNKPFHDSETEIMCHVPKRKPRAVHRGVQPTSVLQPNLHMVHACLESQGRPPIDNMQWSIDPGADLSQYEMDMTMEDSKSGSPAKPELEDMDYTYVNESCLLKLKMGDPDDSEAESKDQDSFGEMFDKTEYGEYASYIKDKSPSQSISCKERSDIPSIENKKITSEKEHESKGEPYQKQKAFVEPYFQRPERKKPAIDFPHIEVVRNKEERRKMLGHTCKECELYYADLPEEERAKKLASCSRHRFRYIPPSTPENFWEVGFPSTQTCKDRGYIKEELSPCQRPRRRQPYNAIFTSKIKEQKT
On to B1, for which the binding result in assay [2] and in assay [3] was “binds” throughout.
